We go through 2 compounds from patent US9737525B2, “Small molecule activators of NRF2 pathway” (The General Hospital Corporation, priority 2013, dated 2017).

The test system of this data set is dopaminergic neurons. In words: MPTP mouse model of Parkinson's disease. It counts as in vivo. To be noted: 90 min after MPTP injection. The protocol:
Male C57BL/6 mice (˜25 g) from Charles River Laboratories, Wilmington, Mass. were housed in temperature- and humidity-controlled rooms with a 12 hr dark: light cycle and had free access to food and water. Subacute MPTP paradigm (20 mg/kg i.p. injection once daily for 4 days) was employed to test dose response of MIND4 at 30 mg/kg, 60 mg/kg, or 90 mg/kg (i.p. 10 min before and 50 min after each MPTP injection). The effective dose of 60 mg/kg was used in the subsequent experiments (i.p. 10 min before and 50 min after each MPTP injection). Control animals received saline (control for MPTP) and 10% propylene glycol and 90% dextrose as vehicle for MIND4 by i.p. Mice were sacrificed 7 days after the last MPTP administration and striatal DA and metabolite HVA were determined by high performance liquid chromatography (HPLC) coupled with electrochemical detection (ECD) Immunostaining for tyrosine hydroxylase (TH), a marker for dopaminergic neurons was performed using mouse anti-TH antibody (Sigma, ST. Louis, Mo.). Total numbers of TH positive neurons in the substantia nigra (SN) were counted under blinded conditions using the Bioquant Image Analysis System (R&M Biometrics, Nashville, Tenn.).
The protective effects of CPD4 have been confirmed in both acute and subchronic PTP paradigms by comprehensive behavioral, neurochemical, and neuropathological evaluations (FIG. 18). […]

`O=C(Nc1cccc(Br)c1)c1cccc(S(=O)(=O)N2CCCCCC2)c1` [AK7, reference compound]: the “MPP+ concentration in the striatum” value is given as “Increased levels of MPP^+”.

`O=[N+]([O-])c1ccc(Sc2nnc(COc3ccccc3)n2-c2ccccc2)c2ncccc12` [MIND4, 5-nitro-8-{[5-(phenoxymethyl)-4-phenyl-4H-1,2,4-triazol-3-yl]thio}quinoline]: the “MPP+ concentration in the striatum” value is “no difference in MPP+ concentration”.
